{
  "source": "patent US7794965B2",
  "about": "“Method of identifying modulators of PP2A methylase” (Signum Biosciences, Inc., priority 2002, dated 2010)",
  "details": "B6, B12",
  "note": "Like-named read-outs stand apart in the source and are kept apart here.",
  "data": [
    {"smiles": "CSCC[C@H](N)C(=O)O", "note": "[methionine]", "values": [
      {"measurement": "Body weight, ratio methionine-enriched / not enriched", "setting": "diets with folate", "result": 0.9},
      {"measurement": "Brain weight, ratio methionine-enriched / not enriched", "setting": "diets with folate", "result": 1},
      {"measurement": "Heart weight, ratio methionine-enriched / not enriched", "setting": "diets with folate", "result": 0.9},
      {"measurement": "Body weight, ratio methionine-enriched / not enriched", "setting": "diets without folate", "result": 0.9},
      {"measurement": "Brain weight, ratio methionine-enriched / not enriched", "setting": "diets without folate", "result": 1},
      {"measurement": "Heart weight, ratio methionine-enriched / not enriched", "setting": "diets without folate", "result": 0.8}
    ]}
  ]
}
